Laboratory results published in paper PMC6925144, “A prospective compound screening contest identified broader inhibitors for Sirtuin 1” (Scientific Reports, 2019).
In all, about 3,200 compounds were measured (“TSA(without NAD+) / Primary screening (TSA) / delta Tm (K)”: median about -0.07, highest 2% from about 0.37 on). The list shows a part of the results.

By UniProt entry, the sequences of proteins in these tests, tags left out. Residues count along the entry.
UniProt Q96EB6, 2-747 limits assumed: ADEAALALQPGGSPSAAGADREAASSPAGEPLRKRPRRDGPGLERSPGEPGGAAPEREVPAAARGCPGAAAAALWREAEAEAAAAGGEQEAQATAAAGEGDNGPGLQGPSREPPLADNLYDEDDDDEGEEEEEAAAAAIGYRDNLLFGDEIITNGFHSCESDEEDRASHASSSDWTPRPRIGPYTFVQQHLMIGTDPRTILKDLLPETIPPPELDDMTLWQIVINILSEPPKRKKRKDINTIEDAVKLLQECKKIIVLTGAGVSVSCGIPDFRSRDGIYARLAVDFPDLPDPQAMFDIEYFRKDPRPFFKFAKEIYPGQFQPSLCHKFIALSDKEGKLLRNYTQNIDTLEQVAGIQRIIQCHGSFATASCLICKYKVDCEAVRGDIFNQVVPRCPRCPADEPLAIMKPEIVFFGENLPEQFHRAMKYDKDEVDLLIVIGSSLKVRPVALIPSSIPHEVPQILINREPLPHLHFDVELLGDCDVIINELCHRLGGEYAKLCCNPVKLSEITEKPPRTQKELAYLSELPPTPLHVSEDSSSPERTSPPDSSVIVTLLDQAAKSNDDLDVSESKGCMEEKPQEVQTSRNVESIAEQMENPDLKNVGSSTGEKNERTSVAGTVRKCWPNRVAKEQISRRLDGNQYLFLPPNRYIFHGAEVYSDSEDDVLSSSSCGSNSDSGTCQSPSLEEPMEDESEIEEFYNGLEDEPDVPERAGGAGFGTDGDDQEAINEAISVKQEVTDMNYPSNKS

Target: NAD-dependent deacetylase Sirtuin 1 (human, UniProt Q96EB6)
Assay: primary screen, delta tm
Set-up: single well (n = 1)
Conditions: 10 µM
Experimental: A total of 3,192 compounds extracted from the proposed lists were first screened by thermal shift assay (TSA), which determined a melting temperature shift (ΔTm) of Sirtuin 1 upon the addition of a test compound at a concentration of 10 µM (n = 1) with primary hit criteria of ΔTm > 0.45 K or ΔTm < −1.5 K. Primary hits (48 compounds) were retested in the same assay at three concentrations (5, 10, 20 µM, n = 4) for hit confirmation and for dose-dependency check. Secondary hits (41 compounds) were checked their selectivity for Sirtuin 1 based on counterscreening on unrelated protein targets (bovine carbonic anhydrase (CA) and recombinant SH2 domain of hABL1 kinase (ABL1)) at three different concentrations (5, 10, 20 µM, n = 4), which yielded 38 hit compounds, hereafter referred to as TSA hits. The TSA screening above was conducted in the absence of NAD+.

Structure (SMILES)	TSA(without NAD+) / Primary screening (TSA) / delta Tm (K)
CC(C)CC(NC(N)=O)C(=O)NC(Cc1ccccc1)c1nc2ccccc2[nH]1 (stereo not shown)	-0.17 K
Cc1ccc(-c2nnc(CCC(=O)Nc3cccc(C)c3C)o2)cc1	-0.04 K
COc1ccc(C=C2C(=O)NC(=S)NC2=O)c2ccccc12	-0.15 K
CCOc1ccccc1/C=C1/Oc2cc(O)ccc2C1=O	0.02 K
O=C1CC2(CCCCC2)CC(=O)C1=CNCC1COc2ccccc2O1 (stereo not shown)	0.08 K
O=c1[nH]cccc1O	-0.17 K
Cc1sc(NC(=O)N2CCN(Cc3nc(-c4ccc(Cl)cc4)no3)CC2)c(C#N)c1C	0.12 K
O=C(Nc1ccccc1Oc1ccccc1)C1COc2ccccc2O1 (stereo not shown)	-0.15 K
CCCOc1cccc(C2C(C(=O)c3cccs3)=C(O)C(=O)N2CCCN2CCOCC2)c1 (stereo not shown)	0.07 K
Cc1ccc(N(C)S(=O)(=O)c2cccc(C(=O)Nc3ccccc3C)c2)cc1	0.17 K
Cc1ccc(Oc2ccc(NCc3nnc(C4CCC4)o3)cc2)nn1	-0.03 K
O=C([O-])CP(=O)([O-])C(=O)[O-]	-0.12 K
Cc1nc(C)c(C(C)NC(=O)CSC(=S)N2CCC(C)CC2)s1 (stereo not shown)	-0.02 K
CCCCOCCN	-0.08 K
N#Cc1cnn(C(=O)C2=NOC(c3ccccc3)C2)c1N (stereo not shown)	0.19 K
Cc1nc(C(C)NC(=O)c2ccc[nH]2)sc1C(=O)O (stereo not shown)	-0.15 K
Cc1ccc(-c2noc(C(C)N3CCN(c4ncnc5cc(Cl)ccc45)CC3)n2)cc1 (stereo not shown)	-0.02 K
O=C(CCc1cccs1)Nc1ccc(-c2nnc3n2CCCCC3)cc1	0.02 K
NC(=O)c1ccc(NC(=O)COC(=O)CCC(=O)c2ccc(Cl)cc2)cc1	-0.02 K
COc1cc(CN(C)C(=O)Cc2n[nH]c(=O)c3ccccc23)ccc1OCc1ccccc1	-0.11 K
CCOc1ccc(C2C(C(=O)c3cccs3)=C(O)C(=O)N2CCCN2CCOCC2)cc1OC (stereo not shown)	-0.17 K
O=C1/C(=C/c2cnn(-c3ccccc3)c2)Oc2cc(O)ccc21	1.25 K
COc1cccc(NC(=S)Nc2cccc(S(=O)(=O)N(C)c3ccccc3)c2)c1	-0.03 K

Structure (SMILES)	TSA(without NAD+) / Primary screening (TSA) / delta Tm (K)
O=C(NNC(=O)C12CC3CC(CC(C3)C1)C2)c1ccc(NS(=O)(=O)c2ccc3c(c2)OCCO3)cc1	-0.12 K
COc1ccc(C=C2C(=O)NC(=S)NC2=O)c(OC)c1	-0.23 K
Cc1nc2c(C(N)=O)ncn2c(C)c1CCC(=O)Nc1ccc(F)c(C(N)=O)c1	0.02 K
COc1ccc(C(N)=O)cc1NC(=O)c1nc2nc(C)cc(C)n2n1	-0.15 K
Cc1cnc2c(S(=O)(=O)N3CCN(CC(=O)Nc4ccccc4OC(F)F)CC3)cccc2c1	-0.02 K
COc1cc(/C=N/NC(=O)c2cc3c(s2)CCCC3)ccc1OS(=O)(=O)c1cc(C)ccc1C	0.32 K
CCCCC(NC1=NS(=O)(=O)c2ccccc21)C(=O)NCc1ccc(-c2ccc(O)cc2)cc1 (stereo not shown)	0.08 K
Nc1nc(Cl)cc(NC2CCCC2)n1	-0.17 K
Cc1ccc(C23CC4CC(CC(C(=O)OCC(=O)N5c6ccccc6NC(=O)C5(C)C)(C4)C2)C3)cc1	0.06 K
O=C(O)c1ccc2c(c1)C(=O)c1ccccc1-2	0.02 K
O=C(O)CC(S)C(=O)O (stereo not shown)	-0.11 K
CN(CC(=O)Nc1ccc(Cl)c(C(F)(F)F)c1)C(=O)COC(=O)Cc1coc2cc(O)ccc12	0.28 K
CC(OC(=O)c1ccc(C(N)=O)cc1)C(=O)N1CCCc2ccccc21 (stereo not shown)	0.02 K
O=C(NC(c1ccccc1)c1ccc2[nH]cnc2c1)C1=COCCO1 (stereo not shown)	0.03 K
O=C(Nc1ccccc1)C1CCCN1C(=O)Cn1c(SC(F)F)nc2ccccc21 (stereo not shown)	-0.15 K
C=CCOc1ccc(C(=O)C2=C(O)C(=O)N(CCCN3CCOCC3)C2c2ccco2)cc1 (stereo not shown)	-0.04 K
O=C(OCC(=O)C12CC3CC(CC(C3)C1)C2)c1ccc2c(c1)C(=O)N(Cc1ccco1)C2=O	0.15 K
CCNC(=O)NCc1ccc(NC(=O)Cc2cn(CC)c3ccccc23)cc1	-0.18 K
O=C(COC(=O)C1=COCCO1)Nc1cccc2c1C(=O)c1ccccc1C2=O	0.07 K
NC(=O)C1CCN(c2nc(CN3CCCCC3)nc3sc4c(c23)CCC4)CC1	0.07 K
CN(C)C(=O)Cc1ccc(/N=C/c2cc3ccccc3nc2O)cc1	-0.17 K
c1ccc(CNc2ncnc3ccsc23)cc1	0.08 K
COc1ccc(NC(=O)c2ccc(NC(=O)COC(=O)C34CC5CC(CC(Br)(C5)C3)C4)cc2)cc1	1.08 K

Ordered by length of the SMILES (descending): part of the list above
Structure (SMILES)	TSA(without NAD+) / Primary screening (TSA) / delta Tm (K)
Cc1ccc(N(C)S(=O)(=O)c2cccc(C(=O)Nc3ccccc3C)c2)cc1	0.17 K
NC(=O)C1CCN(c2nc(CN3CCCCC3)nc3sc4c(c23)CCC4)CC1	0.07 K
O=C1CC2(CCCCC2)CC(=O)C1=CNCC1COc2ccccc2O1 (stereo not shown)	0.08 K
